Percent infected data for 14 substances are collected here from the supplement of paper PMC3353916.

This is a noisy data set.

This data set relates to Sindbis virus TE/5'2J-GFP. Kind of data set: percent infected (GFP+ in RFP+ ISG-expressing cells); higher = more infection (less antiviral activity). The following applies: experiment: primary screen (single well).

In turn, “MGLQLRALLGAFGRWTLRLGPRPSCSPRMAGNAEPPPAGAACPQDRRSCSGRAGGDRVWEDGEHPAKKLKSGGDEERREKPPKRKIVLLMAYSGKGYHGMQRNVGSSQFKTIEDDLVSALVRSGCIPENHGEDMRKMSFQRCARTDKGVSAAGQVVSLKVWLIDDILEKINSHLPSHIRILGLKRVTGGFNSKNRCDARTYCYLLPTFAFAHKDRDVQDETYRLSAETLQQVNRLLACYKGTHNFHNFTSQKGPQDPSACRYILEMYCEEPFVREGLEFAVIRVKGQSFMMHQIRKMVGLVVAIVKGYAPESVLERSWGTEKVDVPKAPGLGLVLERVHFEKYNQRFGNDGLHEPLDWAQEEGKVAAFKEEHIYPTIIGTERDERSMAQWLSTLPIHNFSATALTAGGTGAKVPSPLEGSEGDGDTD [PUS1]” yielded a percent infected (BHK/HA-Zeo (control)) of 97.8% and a percent infected (BHK/NZAP-Zeo (ZAP)) of 96.3%.

Where the note is “BHK/NZAP-Zeo (ZAP)”, “MAATEISVLSEQFTKIKELELMPEKGLKEEEKDGVCREKDHRSPSELEAERTSGAFQDSVLEEEVELVLAPSEESEKYILTLQTVHFTSEAVELQDMSLLSIQQQEGVQVVVQQPGPGLLWLEEGPRQSLQQCVAISIQQELYSPQEMEVLQFHALEENVMVASEDSKLAVSLAETTGLIKLEEEQEKNQLLAERTKEQLFFVETMSGDERSDEIVLTVSNSNVEEQEDQPTAGQADAEKAKSTKNQRKTKGAKGTFHCDVCMFTSSRMSSFNRHMKTHTSEKPHLCHLCLKTFRTVTLLRNHVNTHTGTRPYKCNDCNMAFVTSGELVRHRRYKHTHEKPFKCSMCKYASVEASKLKRHVRSHTGERPFQCCQCSYASRDTYKLKRHMRTHSGEKPYECHICHTRFTQSGTMKIHILQKHGENVPKYQCPHCATIIARKSDLRVHMRNLHAYSAAELKCRYCSAVFHERYALIQHQKTHKNEKRFKCKHCSYACKQERHMTAHIRTHTGEKPFTCLSCNKCFRQKQLLNAHFRKYHDANFIPTVYKCSKCGKGFSRWINLHRHSEKCGSGEAKSAASGKGRRTRKRKQTILKEATKGQKEAAKGWKEAANGDEAAAEEASTTKGEQFPGEMFPVACRETTARVKEEVDEGVTCEMLLNTMDK [CTCFL]” came in with a percent infected of 82.3%.

For the substance MAFB, for the setting “BHK/NZAP-Zeo (ZAP)”, the percent infected turned out to be 96.5%.

In the case of APOBEC3A, the percent infected by setting is: (BHK/HA-Zeo (control)) 98.7%; (BHK/NZAP-Zeo (ZAP)) 98.3%.

For “MALQRTHSLLLLLLLTLLGLGLVQPSYGQDGMYQRFLRQHVHPEETGGSDRYCNLMMQRRKMTLYHCKRFNTFIHEDIWNIRSICSTTNIQCKNGKMNCHEGVVKVTDCRDTGSSRAPNCRYRAIASTRRVVIACEGNPQVPVHFDG [RNASE4]”, the percent infected (BHK/HA-Zeo (control)) is 98.5% and the percent infected (BHK/NZAP-Zeo (ZAP)) turned out to be 98.3%.

Consider “MATERSRSAMDSPVPASMFAPEPSSPGAARAAAAAARLHGGFDSDCSEDGEALNGEPELDLTSKLVLVSPTSEQYDSLLRQMWERMDEGCGETIYVIGQGSDGTEYGLSEADMEASYATVKSMAEQIEADVILLRERQEAGGRVRDYLVRKRVGDNDFLEVRVAVVGNVDAGKSTLLGVLTHGELDNGRGFARQKLFRHKHEIESGRTSSVGNDILGFDSEGNVVNKPDSHGGSLEWTKICEKSTKVITFIDLAGHEKYLKTTVFGMTGHLPDFCMLMVGSNAGIVGMTKEHLGLALALNVPVFVVVTKIDMCPANILQETLKLLQRLLKSPGCRKIPVLVQSKDDVIVTASNFSSERMCPIFQISNVTGENLDLLKMFLNLLSPRTSYREEEPAEFQIDDTYSVPGVGTVVSGTTLRGLIKLNDTLLLGPDPLGNFLSIAVKSIHRKRMPVKEVRGGQTASFALKKIKRSSIRKGMVMVSPRLNPQASWEFEAEILVLHHPTTISPRYQAMVHCGSIRQTATILSMDKDCLRTGDKATVHFRFIKTPEYLHIDQRLVFREGRTKAVGTITKLLQTTNNSPMNSKPQQIKMQSTKKGPLTKRDEGGPSGGPAVGAPPPGDEASSVGAGQPAASSNLQPQPKPSSGGRRRGGQRHKVKSQGACVTPASGC [GTPBP1]”, for which the percent infected amounted to 97.3% (BHK/HA-Zeo (control)) and 83.2% (BHK/NZAP-Zeo (ZAP)).

For the substance “MLLRSKPALPPPLMLLLLGPLGPLSPGALPRPAQAQDVVDLDFFTQEPLHLVSPSFLSVTIDANLATDPRFLILLGSPKLRTLARGLSPAYLRFGGTKTDFLIFDPKKESTFEERSYWQSQVNQDICKYGSIPPDVEEKLRLEWPYQEQLLLREHYQKKFKNSTYSRSSVDVLYTFANCSGLDLIFGLNALLRTADLQWNSSNAQLLLDYCSSKGYNISWELGNEPNSFLKKADIFINGSQLGEDFIQLHKLLRKSTFKNAKLYGPDVGQPRRKTAKMLKSFLKAGGEVIDSVTWHHYYLNGRTATKEDFLNPDVLDIFISSVQKVFQVVESTRPGKKVWLGETSSAYGGGAPLLSDTFAAGFMWLDKLGLSARMGIEVVMRQVFFGAGNYHLVDENFDPLPDYWLSLLFKKLVGTKVLMASVQGSKRRKLRVYLHCTNTDNPRYKEGDLTLYAINLHNVTKYLRLPYPFSNKQVDKYLLRPLGPHGLLSKSVQLNGLTLKMVDDQTLPPLMEKPLRPGSSLGLPAFSYSFFVIRNAKVAACI [HPSE]”, the percent infected (BHK/HA-Zeo (control)) stood at 63.4% and the percent infected (BHK/NZAP-Zeo (ZAP)) turned out to be 47.5%.

With “MEPAPARSPRPQQDPARPQEPTMPPPETPSEGRQPSPSPSPTERAPASEEEFQFLRCQQCQAEAKCPKLLPCLHTLCSGCLEASGMQCPICQAPWPLGADTPALDNVFFESLQRRLSVYRQIVDAQAVCTRCKESADFWCFECEQLLCAKCFEAHQWFLKHEARPLAELRNQSVREFLDGTRKTNNIFCSNPNHRTPTLTSIYCRGCSKPLCCSCALLDSSHSELKCDISAEIQQRQEELDAMTQALQEQDSAFGAVHAQMHAAVGQLGRARAETEELIRERVRQVVAHVRAQERELLEAVDARYQRDYEEMASRLGRLDAVLQRIRTGSALVQRMKCYASDQEVLDMHGFLRQALCRLRQEEPQSLQAAVRTDGFDEFKVRLQDLSSCITQGKDAAVSKKASPEAASTPRDPIDVDLPEEAERVKAQVQALGLAEAQPMAVVQSVPGAHPVPVYAFSIKGPSYGEDVSNTTTAQKRKCSQTQCPRKVIKMESEEGKEARLARSSPEQPRPSTSKAVSPPHLDGPPSPRSPVIGSEVFLPNSNHVASGAGEAEERVVVISSSEDSDAENSSSRELDDSSSESSDLQLEGPSTLRVLDENLADPQAEDRPLVFFDLKIDNETQKISQLAAVNRESKFRVVIQPEAFFSIYSKAVSLEVGLQHFLSFLSSMRRPILACYKLWGPGLPNFFRALEDINRLWEFQEAISGFLAALPLIRERVPGASSFKLKNLAQTYLARNMSERSAMAAVLAMRDLCRLLEVSPGPQLAQHVYPFSSLQCFASLQPLVQAAVLPRAEARLLALHNVSFMELLSAHRRDRQGGLKKYSRYLSLQTTTLPPAQPAFNLQALGTYFEGLLEGPALARAEGVSTPLAGRGLAERASQQS [PML]”, the percent infected amounted to 98.8% (BHK/HA-Zeo (control)) and 93.3% (BHK/NZAP-Zeo (ZAP)).

The substance “MKRSSVSSGGAGRLSMQELRSQDVNKQGLYTPQTKEKPTFGKLSINKPTSERKVSLFGKRTSGHGSRNSQLGIFSSSEKIKDPRPLNDKAFIQQCIRQLCEFLTENGYAHNVSMKSLQAPSVKDFLKIFTFLYGFLCPSYELPDTKFEEEVPRIFKDLGYPFALSKSSMYTVGAPHTWPHIVAALVWLIDCIKIHTAMKESSPLFDDGQPWGEETEDGIMHNKLFLDYTIKCYESFMSGADSFDEMNAELQSKLKDLFNVDAFKLESLEAKNRALNEQIARLEQEREKEPNRLESLRKLKASLQGDVQKYQAYMSNLESHSAILDQKLNGLNEEIARVELECETIKQENTRLQNIIDNQKYSVADIERINHERNELQQTINKLTKDLEAEQQKLWNEELKYARGKEAIETQLAEYHKLARKLKLIPKGAENSKGYDFEIKFNPEAGANCLVKYRAQVYVPLKELLNETEEEINKALNKKMGLEDTLEQLNAMITESKRSVRTLKEEVQKLDDLYQQKIKEAEEEDEKCASELESLEKHKHLLESTVNQGLSEAMNELDAVQREYQLVVQTTTEERRKVGNNLQRLLEMVATHVGSVEKHLEEQIAKVDREYEECMSEDLSENIKEIRDKYEKKATLIKSSEE [NDC80]” displayed a percent infected (BHK/HA-Zeo (control)) of 98% and a percent infected (BHK/NZAP-Zeo (ZAP)) of 91.2%.

In the case of “MAQRGGARRPRGDRERLGSRLRALRPGREPRQSEPPAQRGPPPSGRPPARSTASGHDRPTRGAAAGARRPRMKKKTRRRSTRSEELTRSEELTLSEEATWSEEATQSEEATQGEEMNRSQEVTRDEESTRSEEVTREEMAAAGLTVTVTHSNEKHDLHVTSQQGSSEPVVQDLAQVVEEVIGVPQSFQKLIFKGKSLKEMETPLSALGIQDGCRVMLIGKKNSPQEEVELKKLKHLEKSVEKIADQLEELNKELTGIQQGFLPKDLQAEALCKLDRRVKATIEQFMKILEEIDTLILPENFKDSRLKRKGLVKKVQAFLAECDTVEQNICQETERLQSTNFALAE [BAG1]”, the percent infected reads like this: (BHK/HA-Zeo (control)) 98.4%; (BHK/NZAP-Zeo (ZAP)) 89.6%.

With “MCSAGELLRGGDGGERDEDGDALAEREAAGTGWDPGASPRRRGQRPKESEQDVEDSQNHTGEPVGDDYKKMGTLFGELNKNLINMGFTRMYFGERIVEPVIVIFFWVMLWFLGLQALGLVAVLCLVIIYVQQ [C4orf32]”, the percent infected is, setting by setting: (BHK/HA-Zeo (control)) 95%; (BHK/NZAP-Zeo (ZAP)) 94.5%.

“MTLNNVTMRQGTVGMQPQQQRWSIPADGRHLMVQKEPHQYSHRNRHSATPEDHCRRSWSSDSTDSVISSESGNTYYRVVLIGEQGVGKSTLANIFAGVHDSMDSDCEVLGEDTYERTLMVDGESATIILLDMWENKGENEWLHDHCMQVGDAYLIVYSITDRASFEKASELRIQLRRARQTEDIPIILVGNKSDLVRCREVSVSEGRACAVVFDCKFIETSAAVQHNVKELFEGIVRQVRLRRDSKEKNERRLAYQKRKESMPRKARRFWGKIVAKNNKNMAFKLKSKSCHDLSVL [GEM]”: the percent infected is, setting by setting: (BHK/HA-Zeo (control)) 95.6%; (BHK/NZAP-Zeo (ZAP)) 80.7%.

On to “MGNGESQLSSVPAQKLGWFIQEYLKPYEECQTLIDEMVNTICDVLQEPEQFPLVQGVAIGGSYGRKTVLRGNSDGTLVLFFSDLKQFQDQKRSQRDILDKTGDKLKFCLFTKWLKNNFEIQKSLDGFTIQVFTKNQRISFEVLAAFNALSLNDNPSPWIYRELKRSLDKTNASPGEFAVCFTELQQKFFDNRPGKLKDLILLIKHWHQQCQKKIKDLPSLSPYALELLTVYAWEQGCRKDNFDIAEGVRTVLELIKCQEKLCIYWMVNYNFEDETIRNILLHQLQSARPVILDPVDPTNNVSGDKICWQWLKKEAQTWLTSPNLDNELPAPSWNVLPAPLFTTPGHLLDKFIKEFLQPNKCFLEQIDSAVNIIRTFLKENCFRQSTAKIQIVRGGSTAKGTALKTGSDADLVVFHNSLKSYTSQKNERHKIVKEIHEQLKAFWREKEEELEVSFEPPKWKAPRVLSFSLKSKVLNESVSFDVLPAFNALGQLSSGSTPSPEVYAGLIDLYKSSDLPGGEFSTCFTVLQRNFIRSRPTKLKDLIRLVKHWYKECERKLKPKGSLPPKYALELLTIYAWEQGSGVPDFDTAEGFRTVLELVTQYQQLCIFWKVNYNFEDETVRKFLLSQLQKTRPVILDPAEPTGDVGGGDRWCWHLLAKEAKEWLSSPCFKDGTGNPIPPWKVPTMQTPGSCGARIHPIVNEMFSSRSHRILNNNSKRNF [OAS2]”, for which the percent infected by setting is: (BHK/HA-Zeo (control)) 98.1%; (BHK/NZAP-Zeo (ZAP)) 92%.

The substance “MKPSGEDQAALAAGPWEECFQAAVQLALRAGQIIRKALTEEKRVSTKTSAADLVTETDHLVEDLIISELRERFPSHRFIAEEAAASGAKCVLTHSPTWIIDPIDGTCNFVHRFPTVAVSIGFAVRQELEFGVIYHCTEERLYTGRRGRGAFCNGQRLRVSGETDLSKALVLTEIGPKRDPATLKLFLSNMERLLHAKAHGVRVIGSSTLALCHLASGAADAYYQFGLHCWDLAAATVIIREAGGIVIDTSGGPLDLMACRVVAASTREMAMLIAQALQTINYGRDDEK [IMPA2]” came in with a percent infected (BHK/HA-Zeo (control)) of 97.9% and a percent infected (BHK/NZAP-Zeo (ZAP)) of 91.1%.
